Measurements from publication PMC4150762, “The DEAD-box helicase Ded1 from yeast is an mRNP cap-associated protein that shuttles between the cytoplasm and nucleus” (Nucleic Acids Research, 2014).
Results are given in words; binding and its absence hold for the method and conditions named. Some entries that bind do so weakly or less than the wild type. For some of these results: Sequences can lack the tags named with a protein.

By UniProt entry, the sequences of proteins in these tests, tags left out.
UniProt P06634: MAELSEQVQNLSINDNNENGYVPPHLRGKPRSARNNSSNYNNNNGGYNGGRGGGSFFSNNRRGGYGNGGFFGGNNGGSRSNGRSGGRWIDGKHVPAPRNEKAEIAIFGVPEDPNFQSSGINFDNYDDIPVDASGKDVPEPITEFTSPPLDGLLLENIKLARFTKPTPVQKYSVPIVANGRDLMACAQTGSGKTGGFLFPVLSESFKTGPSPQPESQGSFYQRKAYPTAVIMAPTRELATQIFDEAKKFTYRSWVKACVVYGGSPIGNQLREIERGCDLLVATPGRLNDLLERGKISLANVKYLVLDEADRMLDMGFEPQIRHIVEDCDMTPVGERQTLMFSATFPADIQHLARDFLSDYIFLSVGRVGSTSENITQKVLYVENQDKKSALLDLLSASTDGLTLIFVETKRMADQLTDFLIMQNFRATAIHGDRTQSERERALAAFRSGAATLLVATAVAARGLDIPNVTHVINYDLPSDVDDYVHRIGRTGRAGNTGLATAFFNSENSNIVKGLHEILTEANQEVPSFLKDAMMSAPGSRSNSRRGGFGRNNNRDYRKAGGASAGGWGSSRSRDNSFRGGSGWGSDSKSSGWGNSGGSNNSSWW

Assays:
Ded1-His6 = Ded1-His6 (S. cerevisiae, UniProt P06634 1-604); test: pull-down; Ded1 bound to protein A Sepharose beads crosslinked to IgG against Ded1, incubated with single purified proteins, washed, eluted; Coomassie-stained SDS PAGE, western blot for Pab1 and Cbp80; same results with or without RNase I or AMP-PNP; both purified
[1] = biological target: T1, His6-Cbp20 (S. cerevisiae) (UniProt Q08920); test: pull-down; 7-methyl-GTP Sepharose beads loaded with 5 μg purified eIF4E or Cbp20, 5 μg of the purified proteins added with 50 U RNase I, 90 min on ice, TpB buffer (20 mM HEPES pH 7.9, 100 mM KCl, 2 mM MgCl2, 2 mM DTT), eluted with 1 mM 7-methyl-GTP; Coomassie-stained SDS PAGE; both purified
T1 sequence: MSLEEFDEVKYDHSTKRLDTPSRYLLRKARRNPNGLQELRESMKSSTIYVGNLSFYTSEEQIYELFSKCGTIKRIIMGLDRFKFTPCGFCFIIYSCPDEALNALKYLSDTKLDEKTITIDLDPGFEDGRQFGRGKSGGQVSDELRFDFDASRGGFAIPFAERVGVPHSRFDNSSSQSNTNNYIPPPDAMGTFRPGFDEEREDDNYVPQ

[2] = biological target: T2, GST-eIF4G1 fragment 1-596 (S. cerevisiae) (UniProt P39935); test: pull-down; positive control: eIF4G fragments with eIF4E or eIF4A; data not shown; both purified
T2 sequence: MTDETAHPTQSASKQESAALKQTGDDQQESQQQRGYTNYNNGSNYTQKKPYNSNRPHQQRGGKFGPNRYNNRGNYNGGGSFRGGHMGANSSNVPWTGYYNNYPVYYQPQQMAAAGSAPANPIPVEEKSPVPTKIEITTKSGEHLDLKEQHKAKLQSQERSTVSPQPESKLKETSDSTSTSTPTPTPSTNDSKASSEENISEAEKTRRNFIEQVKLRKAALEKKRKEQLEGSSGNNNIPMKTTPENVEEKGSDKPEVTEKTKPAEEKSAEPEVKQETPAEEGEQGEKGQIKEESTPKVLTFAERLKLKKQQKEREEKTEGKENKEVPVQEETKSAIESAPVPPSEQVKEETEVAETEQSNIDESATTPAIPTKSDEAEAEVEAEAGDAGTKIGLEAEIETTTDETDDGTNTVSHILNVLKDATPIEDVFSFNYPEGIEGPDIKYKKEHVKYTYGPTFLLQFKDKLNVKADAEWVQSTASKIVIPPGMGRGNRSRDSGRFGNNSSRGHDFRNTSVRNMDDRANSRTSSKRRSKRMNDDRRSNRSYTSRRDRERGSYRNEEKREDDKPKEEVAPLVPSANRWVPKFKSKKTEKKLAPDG

[3] = biological target: Ded1-His6 (S. cerevisiae), P06634; test: pull-down; Ded1 bound to protein A Sepharose beads crosslinked to IgG against Ded1, incubated with single purified proteins, washed, eluted; Coomassie-stained SDS PAGE, western blot for Pab1 and Cbp80; same results with or without RNase I or AMP-PNP; both purified; conditions: remark: other sources report otherwise

B1: MalE-Cbp80 (protein, UniProt P34160 1-861)
chain: MFNRKRRGDFDEDENYRDFRPRMPKRQRIPPVVQLCKEMMPDIRTIGESVKAFEDDIKFLSEAIMNEYGHEDYFNNALLSTLNAVVVEQPQKQAAIALLTMVVNSKNNVAGKSIINYFFEELQKWCKQTYNDEFKSTSNETGPWNKIKLILRFLSILSPMFLVDELINIYKSLFELSIELNNLDPGNRVPLSEAIYTNTLLNIPYLFFFNRNNDGLRTKVEELLAYVEQNYLVKTTDINLLREYNGEPPYEMVELVRVVLPNVKKALINNLEQLNELFPDWNHLLTPQTGDEGFNDALTLPSVDDLKSFVRLNKNFGSVDSMWKTPRYAFHVYLPNSAGNFETVVPISTYAGQLFNDIIIDLVESLEFNRKEVARQVITLDLFFKAGIFTEPGESIAQLIATYEENPLAPTFKIEDLAIETILGLIFKLPSVSQPFAYFYTLLVDICQNSPKAIAPVFGRAFRFFYSHLDSLDFELKLRYLDWFSIQMSNFNFSWKWNEWEDDSIKFGKYFYNPKVNFAKNLIQKELRLTSNFSEVEDSLPQEFTKYLDTSYIPRDQLINYYQSLFTGYTVEEDSVRKNDLYFRQEGVPMENTVRKILDYTHKANNSREVTELESILGELKNEYGSIISDFNRFVIILLVQAVTDSGSRSLSHANKYINDLKEDLKTIFAKIELDIETKEYIIIEAVLTFWNANPQTGFLVADAFKYAGLLTSRTIFTFIFNETGLKNNGLIEATAIEAVFRNLSQQISEENESGNNFEFVFERLCTIANSTIDLLDVNADEDIEIPKVNGEMDIDDIEDDKLDLKWKYFTVIGFIKSILRRYSHEYRELADKFIANIDNAIPHESTRRTISNWIQETKEV
binding (Ded1-His6): binds | binding [1]: binds

B2: eIF4E with an amino-terminal His6 tag (natural protein, S. cerevisiae, UniProt P07260 1-213, looked up)
chain: MSVEEVSKKFEENVSVDDTTATPKTVLSDSAHFDVKHPLNTKWTLWYTKPAVDKSESWSDLLRPVTSFQTVEEFWAIIQNIPEPHELPLKSDYHVFRNDVRPEWEDEANAKGGKWSFQLRGKGADIDELWLRTLLAVIGETIDEDDSQINGVVLSIRKGGNKFALWTKSEDKEPLLRIGGKFKQVLKLTDDGHLEFFPHSSANGRHPQPSITL
notes: eIF4E (CDC33) of S. cerevisiae cloned into the NdeI-BamHI sites of pET15b; also called CDC33; source: E. coli (pET15b), purified on nickel-agarose
binding [2]: binds

B3: eIF4A-His6, P10081 1-395 (enzyme)
chain: MSEGITDIEESQIQTNYDKVVYKFDDMELDENLLRGVFGYGFEEPSAIQQRAIMPIIEGHDVLAQAQSGTGKTGTFSIAALQRIDTSVKAPQALMLAPTRELALQIQKVVMALAFHMDIKVHACIGGTSFVEDAEGLRDAQIVVGTPGRVFDNIQRRRFRTDKIKMFILDEADEMLSSGFKEQIYQIFTLLPPTTQVVLLSATMPNDVLEVTTKFMRNPVRILVKKDELTLEGIKQFYVNVEEEEYKYECLTDLYDSISVTQAVIFCNTRRKVEELTTKLRNDKFTVSAIYSDLPQQERDTIMKEFRSGSSRILISTDLLARGIDVQQVSLVINYDLPANKENYIHRIGRGGRFGRKGVAINFVTNEDVGAMRELEKFYSTQIEELPSDIATLLN
binding [3]: no binding
